Measured values taken from patent EP0478631B1 (CANCER RESEARCH CAMPAIGN TECHNOLOGY LTD., priority 1989, dated 1991).
Values joined by “and” are separate entries in the source; they are usually repeats but may differ in a detail not shown here. Equal entries are not always repeated.

Assay: general procedure: Fmoc solid-phase peptide synthesis; Pepsyn KB; Fmoc amino acid pentafluorophenyl esters with 1-hydroxybenzotriazole; benzotriaz
Settings: whole synthesis, scale 0.2 mmoles

Substance: DTPA-Nle-Asp-His-D-Phe-Arg-Trp-Lys-NH₂
- crude mass: 192 mg
- isolated mass (run 1): 53 mg and 35 mg
